According to PubChem BioAssay AID504834 (National Center for Advancing Translational Sciences (NCATS), 2011):
The campaign covered roughly 320,000 compounds. About 22,000 (6.9%) were called active. The inconclusive results got no clear call from the source; some entries with a clear call stand among them for comparison. Calls come from the whole dose curve; as a rule, active = well fitted inhibition curve with a large enough effect; inconclusive = small, poorly fitted or top-dose-only effect, or another doubt; inactive = no such curve, though single readings can be large or run the other way. A potency beside an inconclusive call is a rough fit, not a confirmed value.

Experiment: Primary qHTS for delayed death inhibitors of the malarial parasite plastid, 96 hour incubation
Details: P. falciparum luciferase reporter growth; series mostly up to 28.7 µM
In short: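 Parasite growth measured via integrated firefly luciferase reporter in P. falciparum. Infected erythrocytes at 2% hematocrit, 0.05% parasitemia final were treated 96 hours at 37 C under 5% CO2, and luminescence was read.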
Potency is the fitted concentration of half-maximal effect.

| SMILES | Potency |
| --- | --- |
| CC1CN(c2nc(-c3ccccc3)nnc2-c2ccccc2)CC(C)O1 (stereo not given) | active: 0.828 µM |
| COC(=O)c1cc(NCc2ccccc2F)ccc1N1CCOCC1 | inconclusive: 18.5 µM [inhibitor, single point] |
| Cc1scc(C(=O)O)c1-c1c(C(=O)O)csc1C | inactive |
| CSc1nc2c(c(C(F)(F)F)n1)CC(C)CC2 (stereo not given) | inconclusive: 13.1 µM [inhibitor, partial curve, poor fit] |
| COCCOc1cc(N(CC(=O)N(C)C)S(=O)(=O)c2ccccc2)c(Cl)cc1Cl | active: 11.7 µM |
| CC(C)(C)c1ccc(NC(=O)N2CCN(c3ccc([N+](=O)[O-])cn3)CC2)cc1 | active: 2.33 µM |
| O=C(NCC1CC1(Cl)Cl)Nc1ccc(Cl)c(Cl)c1 (stereo not given) | inconclusive: 18.5 µM [inhibitor, single point] |
| N/C(Cc1ccccc1)=N\OC(=O)c1cccc2ccccc12 | active: 4.65 µM |
| O=C(Nc1ccccc1N1CCCCC1)c1ncoc1-c1cccc(F)c1 | inconclusive: 18.5 µM [inhibitor, single point] |
| Nc1nc(SCC(=O)c2c(N)n(Cc3ccccc3)c(=O)[nH]c2=O)n[nH]1 | inactive |
| COc1ccc(Nc2nc(N)nc(C(F)(F)F)n2)c(OC)c1 | inconclusive: 18.5 µM [inhibitor, single point] |
| COC(=O)C1=C(C)N(Cc2ccccc2)C(=NCC(C)C)N[C@H]1c1cccc(F)c1 | inconclusive: 11.7 µM [inhibitor, single point] |
| CCNC(=O)COC(=O)c1cc(S(=O)(=O)N2CCCCC2)ccc1C | inconclusive: 0.0037 µM [inhibitor, full curve, poor fit] |
| Cn1nc(SCC(=O)O)sc1=S | inconclusive: 16.5 µM [inhibitor, partial curve, poor fit] |
| Cc1occc1C(=O)NNC1=CC(=O)CC(C)(C)C1 | inconclusive: 0.37 µM [inhibitor, partial curve, poor fit] |
| C/C=C/C=C/C(=O)Nc1cccc(C2=NOC3(C2)C[C@H](C(N)=O)N(C(=O)CC(c2ccccc2)c2ccccc2)C3)c1 (stereo not given in full) | inconclusive: 13.1 µM [inhibitor, single point] |
| N#Cc1ccccc1NC(=O)CN1CCOCC1 | active: 11.7 µM |
| O=C(CCc1ccccc1)N1CCN(c2ccc(F)cc2)CC1 | inactive |
| COc1cc(/C=N/Nc2nc(N3CCCC3)nc(N3CCCC3)n2)ccc1OCc1ccccc1F | inconclusive: 11.7 µM [inhibitor, single point] |
| CCOC(=O)C1CCN(S(=O)(=O)Cc2ccccc2)CC1 | inconclusive: 1.17 µM [inhibitor, full curve, poor fit] |
| CCCCNC(=O)C(=O)c1ccccc1NC(C)=O | inconclusive: 2.08 µM [inhibitor, partial curve] |
| CC(=O)/C=C1\SC(CC(=O)O)C(=O)N1c1ccccc1 (stereo not given) | inconclusive: 10.4 µM [inhibitor, single point] |
| C=CCSC1=C(C#N)C(c2ccccc2OCC)CC(=O)N1 (stereo not given) | inconclusive: 9.28 µM [inhibitor, single point] |
| CCn1c(=O)c2c(nc3n2CCCN3CCc2ccc(OC)c(OC)c2)n(C)c1=O | inconclusive: 4.15 µM [inhibitor, partial curve] |

| SMILES | Potency |
| --- | --- |
| CCOC(=O)c1ccccc1NC(=O)CSc1nc2[nH]ncc2c(=O)[nH]1 | inactive |
| Cc1ccc(NC(=O)c2cnc(SCC(=O)c3ccccc3)n(C)c2=O)cc1 | inactive |
| Cc1cccc(C(=O)NN2C(=O)C3C(c4ccccc4)C=CC(c4ccccc4)C3C2=O)c1 (stereo not given) | inactive |
| COc1cc(C(=O)N/C(=C\c2cn(C)c3ccccc23)C(=O)NCCCn2ccnc2)cc(OC)c1OC | inconclusive: 11.7 µM [inhibitor, partial curve, poor fit] |
| CC1CCCCN1C(=O)COc1ccc(S(=O)(=O)N2CCCC2)cc1[N+](=O)[O-] (stereo not given) | active: 11.7 µM |
| CSc1nc(N(C)CCO)c2sc3nc(-c4ccco4)c4c(c3c2n1)CCC4 | inconclusive: 11.7 µM [inhibitor, single point] |
| Cc1cccc(NC(=O)Cn2c([N+](=O)[O-])cnc2C)c1C | inactive |
| CCCCc1nc2sc3c(SCCN(C)C)ncnc3c2c2c1CCC2 | inconclusive: 18.5 µM [inhibitor, single point] |
| CNC(=O)CSc1ncnc2c1cnn2-c1ccccc1 | inactive |
| O=C(COc1ccc2cc(-c3ccccc3)c(=O)oc2c1)NCC1CCC(C(=O)O)CC1 (stereo not given) | inactive |
| CCN1C(=O)NC(c2cc(Br)ccc2OC)C(C(=O)OC)=C1C (stereo not given) | inconclusive: 18.5 µM [inhibitor, single point] |
| COc1cc(C(=O)NC(C)C2CC3CCC2C3)cc(OC)c1OC (stereo not given) | inactive |
| N#CCN1CCN(CC(=O)c2ccc(Br)cc2)CC1 | inconclusive: 8.28 µM [inhibitor, partial curve, poor fit] |
| O=C(c1ccccc1)N1CCN(C(=O)c2cc3ccccc3o2)CC1 | inconclusive: 8.28 µM [inhibitor, partial curve, poor fit] |
| Nc1c(C(=O)CSc2nnc(N3CCOCC3)n2-c2cccc(F)c2)c(=O)[nH]c(=O)n1C1CC1 | inconclusive: 13.1 µM [inhibitor, single point] |
| COc1cc(/C=N/NC(=O)C(Cc2c[nH]c3ccccc23)NC(=O)OCC(C)C)cc([N+](=O)[O-])c1OCc1ccccc1 (stereo not given) | inconclusive: 4.15 µM [inhibitor, partial curve, poor fit] |
| CCOC(=O)N1CCN(C(=O)COc2cccc3c2CCN(Cc2ccccc2C)C3=O)CC1 | inconclusive: 0.208 µM [inhibitor, partial curve, poor fit] |
| CN(C(=O)c1ccco1)c1nc(-c2ccccc2)cs1 | inconclusive: 18.5 µM [inhibitor, single point] |
| COc1ccc(C(C)=O)cc1COC(=O)c1ccc(C)c(S(=O)(=O)N2CCOCC2)c1 | active: 9.28 µM |
| O=C(c1ccccc1Cl)N1CCC(N2CCC(C(=O)N3CCCC3)CC2)CC1 | inconclusive: 14.7 µM [inhibitor, single point] |
| COc1ccc(C(CNC(=O)c2ccc(Cl)c(S(=O)(=O)N3CCCC3)c2)N2CCCC2)cc1 (stereo not given) | active: 7.38 µM |
| O=C(NCc1cccs1)c1cc(-c2cccs2)on1 | inactive |
| C=CCn1c(SCC(N)=O)nc2scc(-c3ccc(C)o3)c2c1=O | inactive |
| COc1ccc(OC)c(Nc2nc(-c3sc(NC(=O)c4ccccc4)nc3C)cs2)c1 | inactive |

Quoted at random: four compounds from above, in no set order.

| SMILES | Potency |
| --- | --- |
| O=C(c1ccccc1)N1CCN(C(=O)c2cc3ccccc3o2)CC1 | inconclusive: 8.28 µM [inhibitor, partial curve, poor fit] |
| COc1ccc(C(C)=O)cc1COC(=O)c1ccc(C)c(S(=O)(=O)N2CCOCC2)c1 | active: 9.28 µM |
| COc1ccc(Nc2nc(N)nc(C(F)(F)F)n2)c(OC)c1 | inconclusive: 18.5 µM [inhibitor, single point] |
| N/C(Cc1ccccc1)=N\OC(=O)c1cccc2ccccc12 | active: 4.65 µM |

Additional entries:

| SMILES | Potency |
| --- | --- |
| COc1ccc(NC(=O)CCCC(=O)c2ccccc2)c(OC)c1 | inconclusive: 14.7 µM [inhibitor, partial curve] |
| CC1CCC(NC(=O)C2CC(=O)N(c3ccc(Cl)cc3)C2)CC1 (stereo not given) | inconclusive: 9.28 µM [inhibitor, single point] |
| COc1ccc(S(=O)(=O)/N=C2/C=CC(=O)C(C)=C2C)cc1 | inconclusive: 7.38 µM [inhibitor, partial curve, poor fit] |
| Nc1c(C(=O)Nc2ccc(F)cc2)sc2nc(-c3ccco3)ccc12 | inactive |
| COc1ccc(/C=N/N2CCN(C3c4ccccc4-c4ccccc43)CC2)cc1O | inconclusive: 18.5 µM [inhibitor, single point] |
| O=C(O)CC(c1ccc(C(F)(F)F)cc1)N1Cc2ccccc2C1=O (stereo not given) | inactive |
| COc1ccccc1CNC(=O)C1Cc2cc(S(=O)(=O)N3CCCCC3)ccc2N1C(C)=O (stereo not given) | inconclusive: 18.5 µM [inhibitor, single point] |
| CC(C)C(NS(=O)(=O)c1ccc2c(c1)oc(=O)n2C)C(=O)N1CCN(Cc2ccccc2)CC1 (stereo not given) | inconclusive: 10.4 µM [inhibitor, single point] |
| Cc1ccc(S(=O)(=O)N2CCCC2CNC(=O)C(=O)Nc2ccc(F)cc2F)cc1 (stereo not given) | inconclusive: 18.5 µM [inhibitor, single point] |
| Cc1ccc2cc(CN(CC3CCCO3)C(=S)Nc3ccccc3)c(=O)[nH]c2c1 (stereo not given) | inactive |
| CCn1c(CNc2ccc(Cl)cc2)nnc1SCC#N | active: 2.94 µM |
| Cc1nnc(SC(C)C(=O)N(C)C2CCCCC2)n1N (stereo not given) | inconclusive: 18.5 µM [inhibitor, single point] |
| CCN(CC)S(=O)(=O)c1cc(NC(=O)CO/N=C(\N)c2ccccc2Cl)ccc1C | inconclusive: 18.5 µM [inhibitor, single point] |
| CC1(C)CC(=O)C=C(Nc2ccc(C(=O)O)c(O)c2)C1 | inconclusive: 2.33 µM [inhibitor, full curve, poor fit] |
| N#CCCn1cc(C(N)=O)c(-c2ccc3ccccc3c2)n1 | inconclusive: 9.28 µM [inhibitor, single point] |
| O=C(Nc1cccc(F)c1)/C(=C/c1ccco1)NC(=O)c1ccco1 | inactive |
| N#CC1=C(N)OC2=C(CC/C2=C\c2ccccc2)C1c1ccccc1 (stereo not given) | inactive |
| CCOC(=O)c1c(NC(=O)Cc2ccccc2)sc2c1CCN(C)C2 | inactive |
| Cc1occc1C(=O)NNC(=S)Nc1ccccc1C(F)(F)F | inconclusive: 10.4 µM [inhibitor, single point] |
| COc1ccc(C2C(C(C)=O)=C(O)C(=O)N2c2nccs2)c(OC)c1 (stereo not given) | inactive |
| CC(C)[C@@H]1NC(=O)c2cc([N+](=O)[O-])cc(F)c2NCCC[C@@H](C(N)=O)NC(=O)[C@H](CO)NC1=O | active: 9.28 µM |
| CC(C)CC(C(=O)Nc1cccc(O)c1)N1C(=O)c2ccccc2C1=O (stereo not given) | inconclusive: 18.5 µM [inhibitor, single point] |
